Measurements reported in PubChem BioAssay AID1259308 (NCATS, 2017).
Assay: 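Candidate targets for better recombinant protein yield in mammalian cells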 (primary screen). System: human HEK293 embryonic kidney cells stably expressing firefly luciferase (HEK-CMV-Luc2-Hygro). Knock-down reagent: single siRNA against human genes, 0.8 pmol siRNA per well. Timing: 72 h. Detection: 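Reporter luminescence and viable-cell signal on separate replicate plates, given as percent of non-targeting control and median/MAD z-scores, plus per-cell luciferase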. Direction: total luciferase, z-score and total luciferase, % of control: higher = more reporter protein produced; luciferase per cell, z-score: higher = more reporter output per viable cell; viable cells, % of control: higher = more viable cells. Rule for the call: 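Active when the median/MAD z-score for overall luciferase is greater than 3; a gene was taken forward for validation with new siRNAs if at least two of its three siRNAs passed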. Calls: active = raised luciferase; inactive = no rise.
In all, the deposit lists about 59,000 reagents; below is an unselected part. About 1,510 of all reagents (2.6%) were called active. 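Calls use total luciferase alone and ignore viability, so some active siRNAs may act by altering cell number.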 A number with no mark means an inactive call. The numbers tell different reagents against one gene apart.

gene symbol | siRNA no. | total luciferase, z-score | total luciferase, % of control | luciferase per cell, z-score | viable cells, % of control
MGME1 (mitochondrial genome maintenance exonuclease 1) | 1 | 0.214 | 86.1 | 0.429 | 86
MGME1 (mitochondrial genome maintenance exonuclease 1) | 2 | 0.6 | 93.8 | 0.308 | 96.7
MGME1 (mitochondrial genome maintenance exonuclease 1) | 3 | -0.222 | 77.5 | -0.847 | 108
RASL11A (RAS like family 11 member A) | 1 | 0.484 | 91.5 | 0.146 | 98.4
RASL11A (RAS like family 11 member A) | 2 | -2.04 | 41.4 | -2.88 | 98.6
RASL11A (RAS like family 11 member A) | 3 | 0.73 | 96.4 | -0.403 | 120
TTC5 (tetratricopeptide repeat domain 5) | 1 | 0.203 | 85.9 | -0.459 | 108
TTC5 (tetratricopeptide repeat domain 5) | 2 | 0.514 | 92.1 | 0.478 | 90.8
TTC5 (tetratricopeptide repeat domain 5) | 3 | -0.0583 | 80.7 | 0.317 | 83
ARPP21 (cAMP regulated phosphoprotein 21) | 1 | 0.929 | 100 | 0.0265 | 111
ARPP21 (cAMP regulated phosphoprotein 21) | 2 | 1.75 | 117 | 1.49 | 88
ARPP21 (cAMP regulated phosphoprotein 21) | 3 | 3.05 (active) | 142 | 2.48 | 83
NPHS2 (NPHS2 stomatin family member, podocin) | 1 | 0.215 | 86.2 | 0.103 | 93.7
NPHS2 (NPHS2 stomatin family member, podocin) | 2 | 0.491 | 91.6 | 0.519 | 89.3
NPHS2 (NPHS2 stomatin family member, podocin) | 3 | 0.218 | 86.2 | -0.31 | 105

Called active, among the entries above:
gene symbol | siRNA no. | total luciferase, z-score | total luciferase, % of control | luciferase per cell, z-score | viable cells, % of control
ARPP21 (cAMP regulated phosphoprotein 21) | 3 | 3.05 (active) | 142 | 2.48 | 83

Continued.
gene symbol | siRNA no. | total luciferase, z-score | total luciferase, % of control | luciferase per cell, z-score | viable cells, % of control
FBXO15 (F-box protein 15) | 1 | -0.835 | 65.3 | -0.986 | 94.6
FBXO15 (F-box protein 15) | 2 | -0.15 | 78.9 | -0.469 | 99.8
FBXO15 (F-box protein 15) | 3 | -0.337 | 75.2 | -0.14 | 87.2
CC2D2B (coiled-coil and C2 domain containing 2B) | 1 | 1.24 | 107 | 0.864 | 94.9
CC2D2B (coiled-coil and C2 domain containing 2B) | 2 | 0.513 | 92.1 | 1.26 | 73.9
CC2D2B (coiled-coil and C2 domain containing 2B) | 3 | 2.08 | 123 | 1.09 | 103
NT5C3B (5'-nucleotidase, cytosolic IIIB) | 1 | 0.359 | 89 | 0.173 | 95.1
NT5C3B (5'-nucleotidase, cytosolic IIIB) | 2 | -0.249 | 76.9 | -0.0761 | 87.7
NT5C3B (5'-nucleotidase, cytosolic IIIB) | 3 | 1.41 | 110 | 0.817 | 99.1
